Test results reported in US10688099B2, “Methods for modulating the amount of RNA transcripts” (PTC Therapeutics, Inc., priority 2013, dated 2020).
The source gives many values for each of these; only a part stands here.

Test system: RNA isoforms in PNN 1-46 SMA type I patient-derived fibroblasts
Test: RNA Abundance Modulation (RNA isoform abundance, iFPM, HiSeq RNA sequencing)
Assay type: cell-based, human
Conditions: 3 μM
Method: Cells from a cell line of interest are cultured in conditions sufficient to yield the number of cells capable of generating enough RNA for subsequent sequencing steps. Cells from the tested cell line are contacted with a compound described herein.
To culture said cells, they are seeded, at appropriate concentrations in a volume of media in a cell culture container and incubated for 4, 5, 6, 7, 8, 9, 10, or more hours. A concentrated solution of compound in a vehicle (e.g., DMSO) is then added in sufficient volume to result in the intended final concentration of the compound, for example 100 nM, 500 nM, 1 μM, 5 μM, 10 μM, 15 μM, 20 μM, or more. The cells may also be treated with vehicle alone, as a control. A number of replicates of each concentration or control may be made (e.g., 2 replicates). The cells are then incubated at a constant temperature appropriate for cell culture of the particular cell line (e.g., 37° C.) for 6, 12, 18, 24, 48, or more hours. After incubation, the growth medium is removed and the cells are washed with the appropriate buffer (e.g., PBS). Cells are then removed from adherence to the cell culture container by treatment with a solution containing trypsin, and the trypsin subsequently quenched with the appropriate volume of buffer (e.g., DMEM-FBS). The cells are then pelleted with gentle centrifugation (e.g., ≤90×g centrifugal force) and resuspended in a buffer to lyse the cells for extraction of RNA. The cell lysates may then be frozen (e.g., at −80° C.) or, alternately, may immediately be used in a procedure to purify the RNA (e.g. by use of the RNEASY PLUS® minikit). The RNA from cell lysates is eluted in the appropriate volume of buffer (e.g., RNEASE-FREE H2O®). The resulting purified RNA may then be sequenced (e.g., using RNASeq) or analyzed using a human exon array (e.g., by GENECHIP® human exon array) to determine changes in the RNA levels in those cells treated with compound compared to those cells treated only with DMSO. The purified RNA may also be quantified by other methods known in the art.
Using the RNA data obtained from sequencing, exon array, or other methods, a statistical analysis can reveal changes in the RNA levels of compound-treated compared with control. For example, t-test p-values may be calculated for the data obtained through sequencing and exon array methods in order to compare compound-treated cells to those treated with the DMSO control. […] Analysis of the sequencing and exon array data may then also yield predictions about the cause of the aberrant amount of an RNA transcript in the cells (e.g., perturbation of RNA splicing, RNA transcription, or RNA stability). These predictions may be further confirmed by methods known in the art. For example, RT-PCR and RT-qPCR may be used to confirm the change in amount of RNA transcripts for one or more particular transcripts of interest.
Following the methods described above in Example 1, PNN 1-46 SMA type I patient-derived fibroblasts were treated with 300 nM or 3 μM Compounds 774 and 808 in 0.5% DMSO.
700,000 cells were seeded in 10 mL of medium (DMEM plus 10% FBS) in a T-75 flask. Cells were allowed to attach for at least 4 hrs, after which 50 μL of a 200× compound solution (100% DMSO) was added to each well, and the plate was incubated at 37° C. for 24 hrs.
At the end of the incubation period, the supernatant was removed and the cells where washed with PBS. TrypLE (Invitrogen) express solution was added (e.g. 1.5 mL per one T75 flask). The flasks were incubated for 3 to 5 min at 37° C. The trypsin was then quenched, e.g., by adding 10 mL DMEM-FBS.
Next, the cells were pelleted using gentle centrifugation without exceeding 90×g centrifugal force. The supernatant was removed and the cell pellet was re-suspended in 600 μL RLT buffer (the RLT buffer was supplemented with beta-mercaptoethanol according to the RNeasy protocol manual) by pipetting up and down until the pellet was completely dissolved […]

For CCc1nc(C)cn2nc(-c3cc(=O)n4cc(C5CCN(C)CC5)cc(C)c4n3)cc12 [Compound 774], the “abs (Cpd-DMSO)” value (HAT1 NR_027862) was 70 iFPM, the “amp FC (x + 1)” value (HAT1 NR_027862) was 71.14 and the “ave Cpd” value (HAT1 NR_027862) was 0 iFPM. For the same compound, the “FC (x + 1)” value (HLTF BC044659) was 0.2429, the “L2FC (x + 1)” value (HLTF BC044659) was −2.041 and the “L2abs (Cpd-DMSO)” value (HLTF BC044659) was 8.27. The “abs (Cpd-DMSO)” value (HLTF BC044659) was 310 iFPM, the “amp FC (x + 1)” value (HLTF BC044659) was 4.12 and the “ave Cpd” value (HLTF BC044659) was 98 iFPM. The “FC (x + 1)” value (HLTF EU446704) was 0.0091, the “L2FC (x + 1)” value (HLTF EU446704) was −6.783 and the “L2abs (Cpd-DMSO)” value (HLTF EU446704) was 6.77. The “abs (Cpd-DMSO)” value (HLTF EU446704) was 109 iFPM, the “amp FC (x + 1)” value (HLTF EU446704) was 110.14 and the “ave Cpd” value (HLTF EU446704) was 0 iFPM. For the same compound, the “FC (x + 1)” value (HLTF NM_003071) was 0.1448, the “L2FC (x + 1)” value (HLTF NM_003071) was −2.787 and the “L2abs (Cpd-DMSO)” value (HLTF NM_003071) was 10.04. The “abs (Cpd-DMSO)” value (HLTF NM_003071) was 1055 iFPM, the “amp FC (x + 1)” value (HLTF NM_003071) was 6.90 and the “ave Cpd” value (HLTF NM_003071) was 178 iFPM. The “FC (x + 1)” value (HLTF NM_139048) was 0.1355, the “L2FC (x + 1)” value (HLTF NM_139048) was −2.883 and the “L2abs (Cpd-DMSO)” value (HLTF NM_139048) was 7.75. The “abs (Cpd-DMSO)” value (HLTF NM_139048) was 216 iFPM, the “amp FC (x + 1)” value (HLTF NM_139048) was 7.38 and the “ave Cpd” value (HLTF NM_139048) was 33 iFPM. The “FC (x + 1)” value (HMGA1 AK301434) was 6.2225, the “L2FC (x + 1)” value (HMGA1 AK301434) was 2.637 and the “L2abs (Cpd-DMSO)” value (HMGA1 AK301434) was 2.38. For the same compound, the “abs (Cpd-DMSO)” value (HMGA1 AK301434) was 5 iFPM, the “amp FC (x + 1)” value (HMGA1 AK301434) was 6.22 and the “ave Cpd” value (HMGA1 AK301434) was 5 iFPM. For the same compound, the “FC (x + 1)” value (HMGA1 BC008963) was 1.0191, the “L2FC (x + 1)” value (HMGA1 BC008963) was 0.027 and the “L2abs (Cpd-DMSO)” value (HMGA1 BC008963) was 4.59. For the same compound, the “abs (Cpd-DMSO)” value (HMGA1 BC008963) was 24 iFPM, the “amp FC (x + 1)” value (HMGA1 BC008963) was 1.02 and the “ave Cpd” value (HMGA1 BC008963) was 1282 iFPM. The “FC (x + 1)” value (HMGA1 BC063434) was 1.3507, the “L2FC (x + 1)” value (HMGA1 BC063434) was 0.434 and the “L2abs (Cpd-DMSO)” value (HMGA1 BC063434) was 8.64. The “abs (Cpd-DMSO)” value (HMGA1 BC063434) was 398 iFPM, the “amp FC (x + 1)” value (HMGA1 BC063434) was 1.35 and the “ave Cpd” value (HMGA1 BC063434) was 1532 iFPM. For the same compound, the “FC (x + 1)” value (HMGA1 M23616) was 1.3227, the “L2FC (x + 1)” value (HMGA1 M23616) was 0.403 and the “L2abs (Cpd-DMSO)” value (HMGA1 M23616) was 9.01. The “abs (Cpd-DMSO)” value (HMGA1 M23616) was 517 iFPM, the “amp FC (x + 1)” value (HMGA1 M23616) was 1.32 and the “ave Cpd” value (HMGA1 M23616) was 2117 iFPM. The “FC (x + 1)” value (HMGA1 M23618) was 0.3132, the “L2FC (x + 1)” value (HMGA1 M23618) was −1.675 and the “L2abs (Cpd-DMSO)” value (HMGA1 M23618) was 8.74. The “abs (Cpd-DMSO)” value (HMGA1 M23618) was 429 iFPM, the “amp FC (x + 1)” value (HMGA1 M23618) was 3.19 and the “ave Cpd” value (HMGA1 M23618) was 194 iFPM. For the same compound, the “FC (x + 1)” value (HMGA1 M23619) was 1.1635, the “L2FC (x + 1)” value (HMGA1 M23619) was 0.218 and the “L2abs (Cpd-DMSO)” value (HMGA1 M23619) was 9.33. For the same compound, the “abs (Cpd-DMSO)” value (HMGA1 M23619) was 645 iFPM, the “amp FC (x + 1)” value (HMGA1 M23619) was 1.16 and the “ave Cpd” value (HMGA1 M23619) was 4589 iFPM. The “FC (x + 1)” value (HMGA1 NM_002131) was 11.6543, the “L2FC (x + 1)” value (HMGA1 NM_002131) was 3.543 and the “L2abs (Cpd-DMSO)” value (HMGA1 NM_002131) was 3.41. The “abs (Cpd-DMSO)” value (HMGA1 NM_002131) was 11 iFPM, the “amp FC (x + 1)” value (HMGA1 NM_002131) was 11.65 and the “ave Cpd” value (HMGA1 NM_002131) was 11 iFPM. For the same compound, the “FC (x + 1)” value (HMGA1 NM_145899) was 1.2617, the “L2FC (x + 1)” value (HMGA1 NM_145899) was 0.335 and the “L2abs (Cpd-DMSO)” value (HMGA1 NM_145899) was 9.41. The “abs (Cpd-DMSO)” value (HMGA1 NM_145899) was 680 iFPM, the “amp FC (x + 1)” value (HMGA1 NM_145899) was 1.26 and the “ave Cpd” value (HMGA1 NM_145899) was 3278 iFPM. For the same compound, the “FC (x + 1)” value (HMGA1 NM_145901) was 1.2521, the “L2FC (x + 1)” value (HMGA1 NM_145901) was 0.324 and the “L2abs (Cpd-DMSO)” value (HMGA1 NM_145901) was 5.57. The “abs (Cpd-DMSO)” value (HMGA1 NM_145901) was 47 iFPM, the “amp FC (x + 1)” value (HMGA1 NM_145901) was 1.25 and the “ave Cpd” value (HMGA1 NM_145901) was 235 iFPM. The “FC (x + 1)” value (HMGA1 NM_145903) was 1.9030, the “L2FC (x + 1)” value (HMGA1 NM_145903) was 0.928 and the “L2abs (Cpd-DMSO)” value (HMGA1 NM_145903) was 6.80. For the same compound, the “abs (Cpd-DMSO)” value (HMGA1 NM_145903) was 111 iFPM, the “amp FC (x + 1)” value (HMGA1 NM_145903) was 1.90 and the “ave Cpd” value (HMGA1 NM_145903) was 233 iFPM. For the same compound, the “FC (x + 1)” value (HMGA1 NM_145905) was 0.6341, the “L2FC (x + 1)” value (HMGA1 NM_145905) was −0.657 and the “L2abs (Cpd-DMSO)” value (HMGA1 NM_145905) was 5.13. For the same compound, the “abs (Cpd-DMSO)” value (HMGA1 NM_145905) was 35 iFPM, the “amp FC (x + 1)” value (HMGA1 NM_145905) was 1.58 and the “ave Cpd” value (HMGA1 NM_145905) was 60 iFPM. For the same compound, the “FC (x + 1)” value (HMGB1 AK304506) was 0.3987, the “L2FC (x + 1)” value (HMGB1 AK304506) was −1.327 and the “L2abs (Cpd-DMSO)” value (HMGB1 AK304506) was 10.68. For the same compound, the “abs (Cpd-DMSO)” value (HMGB1 AK304506) was 1639 iFPM, the “amp FC (x + 1)” value (HMGB1 AK304506) was 2.51 and the “ave Cpd” value (HMGB1 AK304506) was 1086 iFPM. For the same compound, the “FC (x + 1)” value (HMGB1 BX647267) was 0.7428, the “L2FC (x + 1)” value (HMGB1 BX647267) was −0.429 and the “L2abs (Cpd-DMSO)” value (HMGB1 BX647267) was 5.77. The “abs (Cpd-DMSO)” value (HMGB1 BX647267) was 55 iFPM, the “amp FC (x + 1)” value (HMGB1 BX647267) was 1.35 and the “ave Cpd” value (HMGB1 BX647267) was 157 iFPM. The “FC (x + 1)” value (HMGB1 CR749614) was 0.7119, the “L2FC (x + 1)” value (HMGB1 CR749614) was −0.490 and the “L2abs (Cpd-DMSO)” value (HMGB1 CR749614) was 5.57. The “abs (Cpd-DMSO)” value (HMGB1 CR749614) was 47 iFPM, the “amp FC (x + 1)” value (HMGB1 CR749614) was 1.40 and the “ave Cpd” value (HMGB1 CR749614) was 116 iFPM. For the same compound, the “FC (x + 1)” value (HMGB1 NM_002128) was 1.0583, the “L2FC (x + 1)” value (HMGB1 NM_002128) was 0.082 and the “L2abs (Cpd-DMSO)” value (HMGB1 NM_002128) was 9.81. The “abs (Cpd-DMSO)” value (HMGB1 NM_002128) was 899 iFPM, the “amp FC (x + 1)” value (HMGB1 NM_002128) was 1.06 and the “ave Cpd” value (HMGB1 NM_002128) was 16310 iFPM. For the same compound, the “FC (x + 1)” value (HMGCR AK296499) was 1.0215, the “L2FC (x + 1)” value (HMGCR AK296499) was 0.031 and the “L2abs (Cpd-DMSO)” value (HMGCR AK296499) was −0.44. The “abs (Cpd-DMSO)” value (HMGCR AK296499) was 1 iFPM, the “amp FC (x + 1)” value (HMGCR AK296499) was 1.02 and the “ave Cpd” value (HMGCR AK296499) was 34 iFPM. The “FC (x + 1)” value (HMGCR AY429542) was 1.0000.
